Test results: PubChem BioAssay AID1347076 (National Center for Advancing Translational Sciences (NCATS), 2019)
Screen size: about 400,000 compounds; about 13,000 (3.2%) were called active. Inconclusive means that the source gave no clear call. Such entries were picked first, then a sample of the others. Calls follow the shape of the dose curve; as a rule, active = well fitted cell-killing curve with a large enough effect; inconclusive = small, poorly fitted or top-dose-only effect, or effect the other way; inactive = flat fitted curve, though single readings scatter. Where the call is inconclusive, the potency comes from a doubtful curve fit.

Test: qHTS assay for MDR1-selective chemotherapeutics: Primary screen using the drug-selected MDR subline cells KB-V1; also: nearly all actives have a fitted effect of over 60% in size
Conditions: KB-V1 MDR cells viability, CellTiter-Glo, 72 h; activity change, negative = cytotoxicity: at 46.1 µM (top of the series)
Method in brief: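 qHTS viability screen in drug-selected KB-V1 MDR cells: 72 h compound treatment at 37 degrees C, ATP luminescence end point.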
% is scaled to controls: 0 for no effect and ±100 for the full control effect; potency is read from the fitted curve at half-maximal effect.

Row | Structure (SMILES) | Potency | activity change, negative = cytotoxicity
1 | COc1ccc(-c2cc(C(=O)NNC3=NCCC3)c3c(C)nn(-c4ccccc4)c3n2)cc1 | inconclusive: 13 µM [cytotoxic, partial curve] | 
2 | CS(=O)(=O)c1nc(-c2ccc(F)cc2)cc(C(F)(F)F)n1 | inconclusive: 25.9 µM [cytotoxic, single point] | 
3 | Cc1ccc(NC(=O)CNC(=O)c2ccccc2F)cc1Cl | inconclusive: 4.61 µM [rising, partial curve, poor fit] | 
4 | c1ccc(-n2nnnc2-c2cnc(-c3cccnc3)nc2-c2cccs2)cc1 | inconclusive: 29.1 µM [cytotoxic, single point] | 
5 | CC(C)Cn1c(N)c(C(=O)COC(=O)/C=C/c2cccs2)c(=O)n(C)c1=O |  | inactive: -20.2%
6 | CCc1cc(C(=O)NNC(=O)CCl)sc1C | inconclusive: 23.1 µM [cytotoxic, single point] | 
7 | COc1ccc(Nc2ncnc3scc(-c4ccc(OC)cc4)c23)cc1 | active: 3.26 µM | 
8 | CCOC(=O)N1CCN(C2=C(NS(=O)(=O)c3ccc(Br)cc3)C(=O)c3ccccc3C2=O)CC1 | inconclusive: 29.1 µM [cytotoxic, single point] | 
9 | O=C(Nc1nnc(-c2ccc(Cl)cc2)o1)Nc1ccccc1Cl | inconclusive: 23.1 µM [rising, partial curve, poor fit] | 
10 | CN(c1ccc(Cl)cc1)c1cc2c(c3c1ccn3C)C1CCC2O1 (centres undefined) |  | inactive: 7.65%
11 | Cc1cc(N2C(=O)NC(=O)CC2C)c(C)cc1C(C)C (centres undefined) | inconclusive: 29.1 µM [cytotoxic, single point] | 
12 | Cc1oc2c(c1C(=O)Nc1ccccc1Br)C1=NCCN1C=N2 |  | inactive: 0%
13 | CCOC(=O)[C@]12CCC=C1N(Cc1ccc(Cl)cc1Cl)C(=O)[C@H](CC(=O)N1CCCCC1)C2 | inconclusive: 2.06 µM [cytotoxic, full curve] | 
14 | CCOC(=O)C1=C(N)Oc2cc(O)ccc2C1c1cccc(Cl)c1 (centres undefined) | inconclusive: 18.4 µM [cytotoxic, single point] | 
15 | COc1ccc(-n2ccc3ccccc32)cc1 | inconclusive: 9.2 µM [cytotoxic, partial curve, poor fit] | 
16 | Cc1ccc(CNC(=O)c2c(O)nc3ccccn3c2=O)cc1 | inconclusive: 29.1 µM [cytotoxic, single point] | 
17 | Cc1ccc(Cn2c(=O)n(CC3CCC(C(=O)N4CCC(C)CC4)CC3)c(=O)c3sccc32)cc1 (centres undefined) |  | inactive: -11.3%
18 | CCN(CC)S(=O)(=O)c1cccc(NC(=O)C(=O)c2c(-c3ccccc3)cc3ccccn23)c1 | active: 3.26 µM | 
19 | Cc1ccc(S(=O)(=O)Oc2cccc(/C=N/n3cnnc3)c2)cc1 | active: 18.4 µM | 
20 | CCOC(=O)C(NC(=O)NCc1ccccc1)(OCC)C(F)(F)F (centres undefined) | inconclusive: 18.4 µM [cytotoxic, partial curve, poor fit] | 
21 | CC(C)CNC(=S)N1CCC(Cc2ccccc2)CC1 | inconclusive: 10.3 µM [cytotoxic, partial curve, poor fit] | 
22 | O=C(NCCc1cccs1)c1ccc(Cn2c(SCc3ccccc3)nc3cccnc32)cc1 |  | inactive: -9.32%
23 | O=C(c1ccc(CS(=O)c2ccccc2Cl)o1)N1CCN(c2ccccc2)CC1 (centres undefined) | inconclusive: 32.6 µM [cytotoxic, partial curve, poor fit] | 

Row | Structure (SMILES) | Potency | activity change, negative = cytotoxicity
24 | C=CCN(c1ccc(C(=O)Nc2ccc(C)c(C)c2)cc1)S(C)(=O)=O | active: 20.6 µM | 
25 | CCCC1c2ccsc2CCN1C(=S)NC (centres undefined) | inconclusive: 18.4 µM [rising, partial curve, poor fit] | 
26 | COc1cccc(/C=C(/C#N)c2nc3ccccc3[nH]2)c1OC(C)C(=O)O (centres undefined) |  | inactive: 11.8%
27 | CCOC(=O)c1ccccc1NC(=O)c1cc2c(s1)-c1c(C)cccc1OC2 | inconclusive: 29.1 µM [rising, single point] | 
28 | COc1ccccc1NC(=O)c1cc(S(=O)(=O)NCc2ccccc2)ccc1F | inconclusive: 13 µM [cytotoxic, single point] | 
29 | COc1ccc(S(=O)(=O)Nc2cc3c4c(c2)CC(=O)N4CCC3)cc1C | inconclusive: 13 µM [cytotoxic, partial curve] | 
30 | COc1cc(CCC(=O)Nc2c(C(=O)N3CCN(c4ccccc4)CC3)oc3ccccc23)on1 |  | inactive: 7.21%
31 | COc1ccc(NS(=O)(=O)c2cc(NC(=O)c3sccc3C)ccc2N2CCOCC2)cc1 |  | inactive: 8.75%
32 | CCOC(=O)c1c(NC(=O)CSC(=S)N2CCOCC2)sc(C)c1C | inconclusive: 2.31 µM [cytotoxic, full curve] | 
33 | C=CCn1c2ccccc2c2nnc(SC(CC)C(=O)Nc3nc(C)c(C(=O)OCC)s3)nc21 (centres undefined) | active: 2.31 µM | 
34 | COc1cc(C2NC(=O)C(C#N)=C(S)N2c2ccc(C)cc2)ccc1OC(C)C (centres undefined) |  | inactive: 21.3%
35 | CC(=O)Nc1ccc(NC(=O)c2cc(-c3ccc(C)c(C)c3O)n[nH]2)cc1 | inconclusive: 32.6 µM [rising, single point] | 
36 | COC(=O)Cn1c(=NC(=O)CSCC(=O)NC2CCCCC2)sc2cc(OC)ccc21 | inconclusive: 4.11 µM [cytotoxic, partial curve] | 
37 | COc1ccc(-n2c(Cc3cccn3C)nnc2SCC(=O)NCc2ccc(F)cc2)cc1 | inconclusive: 3.66 µM [rising, full curve, poor fit] | 
38 | COc1cccc(C(c2sc3nc(-c4ccco4)nn3c2O)N2CCOCC2)c1 (centres undefined) | inconclusive: 29.1 µM [rising, single point] | 
39 | CCOC(=O)CC(=O)CSc1nc2c(cc1C#N)CCCCC2 |  | inactive: 20.9%
40 | O=C(O)c1ccccc1-n1c(-c2ccccc2)cc2c1CCCC2=O | inconclusive: 29.1 µM [rising, single point] | 
41 | Cc1cc2nnc(SCC(=O)NCC3CCCO3)n2c2ccccc12 (centres undefined) | inconclusive: 14.6 µM [cytotoxic, partial curve, poor fit] | 
42 | COc1ccc(N(CC(=O)NCc2ccccc2Cl)S(=O)(=O)c2c(C)[nH]c(=O)[nH]c2=O)cc1 |  | inactive: 21.4%
43 | Cc1nonc1C1CCCN1C(=O)c1cc(COc2ccc(F)cc2F)on1 (centres undefined) | inconclusive: 9.2 µM [cytotoxic, partial curve] | 
44 | COc1ccc(C2=NCC(CSc3nnc(-c4ccc5c(c4)OCO5)o3)S2)cc1 (centres undefined) | inconclusive: 18.4 µM [cytotoxic, single point] | 
45 | CC1CCN(Cc2c(C(=O)N/N=C/c3cccc(Cl)c3)nnn2-c2nonc2N)CC1 |  | inactive: -9.29%
46 | CC(=O)N1CCN(Cc2cc(=O)n3cc(Cl)c(C)c(Cl)c3n2)CC1 | inconclusive: 18.4 µM [cytotoxic, partial curve, poor fit] | 

Given as tab-separated lines: part of the list above
Row	Structure (SMILES)	Potency	activity change, negative = cytotoxicity
29	COc1ccc(S(=O)(=O)Nc2cc3c4c(c2)CC(=O)N4CCC3)cc1C	inconclusive: 13 µM [cytotoxic, partial curve]	
30	COc1cc(CCC(=O)Nc2c(C(=O)N3CCN(c4ccccc4)CC3)oc3ccccc23)on1		inactive: 7.21%
31	COc1ccc(NS(=O)(=O)c2cc(NC(=O)c3sccc3C)ccc2N2CCOCC2)cc1		inactive: 8.75%
32	CCOC(=O)c1c(NC(=O)CSC(=S)N2CCOCC2)sc(C)c1C	inconclusive: 2.31 µM [cytotoxic, full curve]	
33	C=CCn1c2ccccc2c2nnc(SC(CC)C(=O)Nc3nc(C)c(C(=O)OCC)s3)nc21 (centres undefined)	active: 2.31 µM	
34	COc1cc(C2NC(=O)C(C#N)=C(S)N2c2ccc(C)cc2)ccc1OC(C)C (centres undefined)		inactive: 21.3%
35	CC(=O)Nc1ccc(NC(=O)c2cc(-c3ccc(C)c(C)c3O)n[nH]2)cc1	inconclusive: 32.6 µM [rising, single point]	
36	COC(=O)Cn1c(=NC(=O)CSCC(=O)NC2CCCCC2)sc2cc(OC)ccc21	inconclusive: 4.11 µM [cytotoxic, partial curve]	
37	COc1ccc(-n2c(Cc3cccn3C)nnc2SCC(=O)NCc2ccc(F)cc2)cc1	inconclusive: 3.66 µM [rising, full curve, poor fit]	
38	COc1cccc(C(c2sc3nc(-c4ccco4)nn3c2O)N2CCOCC2)c1 (centres undefined)	inconclusive: 29.1 µM [rising, single point]	
39	CCOC(=O)CC(=O)CSc1nc2c(cc1C#N)CCCCC2		inactive: 20.9%
40	O=C(O)c1ccccc1-n1c(-c2ccccc2)cc2c1CCCC2=O	inconclusive: 29.1 µM [rising, single point]	
41	Cc1cc2nnc(SCC(=O)NCC3CCCO3)n2c2ccccc12 (centres undefined)	inconclusive: 14.6 µM [cytotoxic, partial curve, poor fit]	
42	COc1ccc(N(CC(=O)NCc2ccccc2Cl)S(=O)(=O)c2c(C)[nH]c(=O)[nH]c2=O)cc1		inactive: 21.4%
43	Cc1nonc1C1CCCN1C(=O)c1cc(COc2ccc(F)cc2F)on1 (centres undefined)	inconclusive: 9.2 µM [cytotoxic, partial curve]	
44	COc1ccc(C2=NCC(CSc3nnc(-c4ccc5c(c4)OCO5)o3)S2)cc1 (centres undefined)	inconclusive: 18.4 µM [cytotoxic, single point]	

Going on with the list.

Row | Structure (SMILES) | Potency | activity change, negative = cytotoxicity
47 | CC(CO)Nc1nc(SCc2ccccc2)nc2sc3c(c12)CCC3 (centres undefined) | inconclusive: 7.31 µM [cytotoxic, partial curve] | 
48 | O=C(CC1C(=O)NCCN1C(=O)Nc1ccc(C(F)(F)F)cc1)Nc1ccc(F)cc1 (centres undefined) |  | inactive: 8.36%
49 | Cc1ccc(-c2nnc(N3CCOCC3)c3ccccc23)cc1S(N)(=O)=O |  | inactive: 4.5%
50 | C=CCc1c(C)nc(SC)nc1Nc1ccc(C(=O)O)cc1 | active: 20.6 µM | 
51 | CC(C)(C)n1nc2c(c1NC(=O)Cc1cccc3ccccc13)CS(=O)(=O)C2 | inconclusive: 25.9 µM [cytotoxic, single point] | 
52 | Cc1ccc(OCC(=O)N(C)CC(=O)Nc2ccccc2Cl)c([N+](=O)[O-])n1 | active: 18.4 µM | 
53 | CN(C)c1ccc(CNC(=O)CN2C(=O)c3cccnc3Oc3ccc(Cl)cc32)cc1 |  | inactive: -8.99%
54 | Clc1cncc(Cl)c1N/N=C/c1ccncc1 | inconclusive: 29.1 µM [cytotoxic, single point] | 
55 | O=C1NN=COc2ccccc21 | inconclusive: 29.1 µM [rising, single point] | 
56 | COC(=O)c1ccccc1-c1ccc(C(c2c(C)[nH][nH]c2=O)c2c(C)[nH][nH]c2=O)o1 | inconclusive: 29.1 µM [cytotoxic, single point] | 
57 | CCn1c2ccccc2c2nnc(SCc3ccccc3)nc21 | inconclusive: 29.1 µM [cytotoxic, single point] | 
58 | Cc1nn(CC(=O)NCc2cccc(Br)c2)c(=O)c2c1sc1ccccc12 |  | inactive: -13.9%
59 | Cc1ccc(NC(=O)CCn2cnc3ccccc3c2=O)c(C)c1 | inconclusive: 23.1 µM [cytotoxic, single point] | 
60 | CCCn1c(=O)c2ccccc2n2c(SCC(=O)N3CCc4ccccc4C3)nnc12 | active: 2.91 µM | 
61 | Cc1c(NS(=O)(=O)c2ccccc2)cc(Cl)c(O)c1C | inconclusive: 20.6 µM [cytotoxic, single point] | 
62 | O=C(NCCN1CCOCC1)c1ccccc1N1C(=O)[C@@H]2Cc3c([nH]c4ccccc34)C(c3ccc(F)cc3)N2C1=O (some centres undefined) | inconclusive: 25.9 µM [rising, single point] | 
63 | COc1ccc(NC(=S)N(CCc2c(C)[nH]c3ccc(C)cc23)Cc2cccnc2)cc1 |  | inactive: 5.57%
64 | CCCC(=O)N(c1ccc2oc(C)c(C(C)=O)c2c1)S(=O)(=O)c1ccc(C)c([N+](=O)[O-])c1 |  | inactive: 0%
65 | CCOc1ccc(S(=O)(=O)N2CCN(C(=O)c3ccc(C)c(S(=O)(=O)N4CCOCC4)c3)CC2)cc1 | active: 20.6 µM | 
66 | O=C(Oc1ccccc1)c1cccc(COC(=O)c2cnccn2)c1 |  | inactive: 2.69%
67 | CCOc1ccccc1C(=O)Nc1ccc2c(c1)C(=O)NC2=O | inconclusive: 23.1 µM [rising, single point] | 
68 | CCC1(C)Cc2c(sc3[nH]c(=S)n(Cc4ccccc4)c(=O)c23)CO1 (centres undefined) | inconclusive: 18.4 µM [cytotoxic, single point] | 
69 | OC1(c2ccccc2)CC(c2ccccc2)c2ccccc2O1 (centres undefined) | inconclusive: 29.1 µM [cytotoxic, single point] | 
